According to doi:10.1101/2024.11.15.622802:
Results are given in words; binding and its absence hold for the method and conditions named. Binding seen in cells or lysates may run through a third protein. Here binding means that the protein was enriched with, or labelled near, the bait; the list need not be complete. Where a sequence is shown, tags or fusion partners need not be part of it.

Tests used:
[1] = molecular target: T1, eGFP-AMSH2 (Arabidopsis AMSH2) (Arabidopsis thaliana) (UniProt Q6NKP9); test: affinity purification with mass spectrometry
T1 sequence: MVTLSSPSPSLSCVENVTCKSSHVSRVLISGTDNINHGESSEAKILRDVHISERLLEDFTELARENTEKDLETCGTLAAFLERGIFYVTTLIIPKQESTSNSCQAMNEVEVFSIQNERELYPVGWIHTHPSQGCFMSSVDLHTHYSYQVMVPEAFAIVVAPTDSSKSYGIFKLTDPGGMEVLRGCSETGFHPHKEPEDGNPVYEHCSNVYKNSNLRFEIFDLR

[2] = molecular target: Flag-Mp10 (Myzus persicae); test: affinity purification with mass spectrometry

Molecule | binding [1] | binding [2]
Flag-Mp10 (Myzus persicae) | binds | –
eGFP-AMSH2 (Arabidopsis AMSH2) (enzyme, UniProt Q6NKP9 1-223) MVTLSSPSPSLSCVENVTCKSSHVSRVLISGTDNINHGESSEAKILRDVHISERLLEDFTELARENTEKDLETCGTLAAFLERGIFYVTTLIIPKQESTSNSCQAMNEVEVFSIQNERELYPVGWIHTHPSQGCFMSSVDLHTHYSYQVMVPEAFAIVVAPTDSSKSYGIFKLTDPGGMEVLRGCSETGFHPHKEPEDGNPVYEHCSNVYKNSNLRFEIFDLR | – | binds
